Reference: publication doi:10.1101/2021.04.27.441574
Results are given in words; binding and its absence hold for the method and conditions named. Binding seen in cells or lysates may run through a third protein. A yes stands for co-enrichment or nearness to the bait. Other partners may have been found.

Molecular target: T1, AzuC-SPA (E. coli) (UniProt C1P605)
T1 sequence: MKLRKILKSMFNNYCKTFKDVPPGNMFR
Test: affinity purification with mass spectrometry

binding: binds
B1: aerobic glycerol 3-phosphate dehydrogenase (GlpD) (enzyme, UniProt P13035 1-501)
chain: METKDLIVIGGGINGAGIAADAAGRGLSVLMLEAQDLACATSSASSKLIHGGLRYLEHYEFRLVSEALAEREVLLKMAPHIAFPMRFRLPHRPHLRPAWMIRIGLFMYDHLGKRTSLPGSTGLRFGANSVLKPEIKRGFEYSDCWVDDARLVLANAQMVVRKGGEVLTRTRATSARRENGLWIVEAEDIDTGKKYSWQARGLVNATGPWVKQFFDDGMHLPSPYGIRLIKGSHIVVPRVHTQKQAYILQNEDKRIVFVIPWMDEFSIIGTTDVEYKGDPKAVKIEESEINYLLNVYNTHFKKQLSRDDIVWTYSGVRPLCDDESDSPQAITRDYTLDIHDENGKAPLLSVFGGKLTTYRKLAEHALEKLTPYYQGIGPAWTKESVLPGGAIEGDRDDYAARLRRRYPFLTESLARHYARTYGSNSELLLGNAGTVSDLGEDFGHEFYEAELKYLVDHEWVRRADDALWRRTKQGMWLNADQQSRVSQWLVEYTQQRLSLAS
